Results as given in publication PMC5852242.

Amino acid sequences for entries named in this document (tags omitted).
UniProt P63104: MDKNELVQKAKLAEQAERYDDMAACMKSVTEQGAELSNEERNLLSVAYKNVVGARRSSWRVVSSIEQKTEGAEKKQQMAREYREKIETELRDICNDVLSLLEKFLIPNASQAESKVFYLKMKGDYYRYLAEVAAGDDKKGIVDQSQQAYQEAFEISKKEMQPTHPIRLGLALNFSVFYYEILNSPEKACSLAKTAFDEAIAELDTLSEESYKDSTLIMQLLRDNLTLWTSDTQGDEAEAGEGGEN

T1: Flag-tagged TRIP13 (Thyroid hormone Receptor Interactor 13) (UniProt Q15645)
T1 sequence: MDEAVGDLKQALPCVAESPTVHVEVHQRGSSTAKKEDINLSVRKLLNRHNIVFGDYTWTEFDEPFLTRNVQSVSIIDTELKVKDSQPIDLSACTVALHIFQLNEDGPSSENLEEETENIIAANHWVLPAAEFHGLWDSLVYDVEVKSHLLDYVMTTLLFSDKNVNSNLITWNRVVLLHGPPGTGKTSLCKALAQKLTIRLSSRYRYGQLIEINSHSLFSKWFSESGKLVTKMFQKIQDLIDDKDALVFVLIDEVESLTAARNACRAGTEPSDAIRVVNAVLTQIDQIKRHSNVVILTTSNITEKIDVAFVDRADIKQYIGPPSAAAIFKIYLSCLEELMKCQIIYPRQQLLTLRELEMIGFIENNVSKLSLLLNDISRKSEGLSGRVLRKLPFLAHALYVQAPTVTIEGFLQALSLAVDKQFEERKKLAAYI


Molecular target: T1, Flag-tagged TRIP13 (Thyroid hormone Receptor Interactor 13)
Assay: affinity purification with mass spectrometry; lysate of HCT116-Flag-TRIP13 cells or control; TRIP13 complex proteins purified with anti-Flag M2 magnetic beads, eluted in loading buffer, SDS-PAGE, Coomassie staining, nano-LC-MS/MS

| binding | Molecule |
| --- | --- |
| binds | YWHAZ (14-3-3ζ) (from UniProt P63104 1-245) |
| binds | YWHAQ (protein, UniProt P27348 1-245) MEKTELIQKAKLAEQAERYDDMATCMKAVTEQGAELSNEERNLLSVAYKNVVGGRRSAWRVISSIEQKTDTSDKKLQLIKDYREKVESELRSICTTVLELLDKYLIANATNPESKVFYLKMKGDYFRYLAEVACGDDRKQTIDNSQGAYQEAFDISKKEMQPTHPIRLGLALNFSVFYYEILNNPELACTLAKTAFDEAIAELDTLNEDSYKDSTLIMQLLRDNLTLWTSDSAGEECDAAEGAEN |

These are yes or no findings as the source states them, for the method shown. Binding seen in cells or lysates may run through a third protein. These calls come from enrichment with a bait or labelling near it, and not all partners need be listed. Sequences can lack the tags named with a protein.
